According to the supplement of paper PMC6411743:
± gives the standard deviation of the averaged measurements. The list shows a part of the results.

Protein sequences, listed by entry. Tags and fused reporters are not part of them. Lines headed by an entry give the natural chain unless they say otherwise; changes in a name come on top.
UniProt Q9UM00: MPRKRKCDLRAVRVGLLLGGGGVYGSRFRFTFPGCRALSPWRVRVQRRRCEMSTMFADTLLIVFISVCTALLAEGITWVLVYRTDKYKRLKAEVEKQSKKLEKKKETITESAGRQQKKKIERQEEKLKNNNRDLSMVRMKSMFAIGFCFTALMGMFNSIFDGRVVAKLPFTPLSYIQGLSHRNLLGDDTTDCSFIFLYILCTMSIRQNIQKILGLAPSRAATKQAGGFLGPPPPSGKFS
UniProt A0FGR8: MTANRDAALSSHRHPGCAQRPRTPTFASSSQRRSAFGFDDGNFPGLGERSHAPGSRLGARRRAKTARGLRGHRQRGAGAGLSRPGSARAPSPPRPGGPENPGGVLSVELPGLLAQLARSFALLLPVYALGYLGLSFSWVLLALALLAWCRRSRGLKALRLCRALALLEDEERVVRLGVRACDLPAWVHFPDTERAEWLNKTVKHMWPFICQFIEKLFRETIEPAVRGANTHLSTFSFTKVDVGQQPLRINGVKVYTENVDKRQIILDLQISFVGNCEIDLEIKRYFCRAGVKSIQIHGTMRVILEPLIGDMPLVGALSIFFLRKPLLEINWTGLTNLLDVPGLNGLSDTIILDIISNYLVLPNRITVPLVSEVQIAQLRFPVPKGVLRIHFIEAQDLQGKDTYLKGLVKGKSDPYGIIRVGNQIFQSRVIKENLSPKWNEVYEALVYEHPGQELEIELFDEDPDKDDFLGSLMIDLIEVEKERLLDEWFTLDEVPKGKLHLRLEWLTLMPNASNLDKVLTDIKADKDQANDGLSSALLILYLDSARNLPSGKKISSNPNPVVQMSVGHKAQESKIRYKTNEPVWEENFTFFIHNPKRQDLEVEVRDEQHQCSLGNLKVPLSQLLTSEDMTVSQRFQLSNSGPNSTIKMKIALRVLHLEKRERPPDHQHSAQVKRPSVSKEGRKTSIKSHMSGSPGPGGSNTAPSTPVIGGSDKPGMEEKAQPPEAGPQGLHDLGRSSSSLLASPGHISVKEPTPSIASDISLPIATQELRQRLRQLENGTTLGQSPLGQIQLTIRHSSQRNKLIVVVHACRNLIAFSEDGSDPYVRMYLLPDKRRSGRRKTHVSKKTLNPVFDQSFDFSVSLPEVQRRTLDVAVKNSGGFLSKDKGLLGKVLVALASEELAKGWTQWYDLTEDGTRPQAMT
UniProt P47736: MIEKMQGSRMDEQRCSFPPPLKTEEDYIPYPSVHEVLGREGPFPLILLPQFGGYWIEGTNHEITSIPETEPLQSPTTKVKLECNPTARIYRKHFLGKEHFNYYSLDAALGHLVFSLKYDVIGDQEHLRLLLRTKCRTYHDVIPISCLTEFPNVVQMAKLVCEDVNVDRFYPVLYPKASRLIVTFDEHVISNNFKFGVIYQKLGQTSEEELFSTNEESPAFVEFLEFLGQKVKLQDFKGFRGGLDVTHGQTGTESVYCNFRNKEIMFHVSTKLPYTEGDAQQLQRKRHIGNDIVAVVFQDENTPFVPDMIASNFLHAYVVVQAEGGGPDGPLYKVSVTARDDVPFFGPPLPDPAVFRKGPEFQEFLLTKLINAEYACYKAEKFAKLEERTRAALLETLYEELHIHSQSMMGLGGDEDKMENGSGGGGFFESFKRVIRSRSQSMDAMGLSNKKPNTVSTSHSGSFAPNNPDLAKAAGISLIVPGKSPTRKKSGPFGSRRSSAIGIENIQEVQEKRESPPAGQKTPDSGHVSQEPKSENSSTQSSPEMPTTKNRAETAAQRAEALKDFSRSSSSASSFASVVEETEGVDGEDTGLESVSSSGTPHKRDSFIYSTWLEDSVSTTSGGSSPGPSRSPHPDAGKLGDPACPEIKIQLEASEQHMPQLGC
UniProt Q9NZC3: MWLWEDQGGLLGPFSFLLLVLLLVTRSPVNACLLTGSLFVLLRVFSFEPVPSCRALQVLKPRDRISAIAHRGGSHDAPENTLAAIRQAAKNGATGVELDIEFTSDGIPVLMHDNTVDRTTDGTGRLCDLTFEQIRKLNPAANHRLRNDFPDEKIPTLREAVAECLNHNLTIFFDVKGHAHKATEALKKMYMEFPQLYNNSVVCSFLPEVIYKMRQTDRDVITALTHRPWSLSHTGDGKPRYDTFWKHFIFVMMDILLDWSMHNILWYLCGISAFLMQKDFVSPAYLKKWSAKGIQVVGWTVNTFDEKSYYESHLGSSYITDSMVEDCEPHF
UniProt Q16543: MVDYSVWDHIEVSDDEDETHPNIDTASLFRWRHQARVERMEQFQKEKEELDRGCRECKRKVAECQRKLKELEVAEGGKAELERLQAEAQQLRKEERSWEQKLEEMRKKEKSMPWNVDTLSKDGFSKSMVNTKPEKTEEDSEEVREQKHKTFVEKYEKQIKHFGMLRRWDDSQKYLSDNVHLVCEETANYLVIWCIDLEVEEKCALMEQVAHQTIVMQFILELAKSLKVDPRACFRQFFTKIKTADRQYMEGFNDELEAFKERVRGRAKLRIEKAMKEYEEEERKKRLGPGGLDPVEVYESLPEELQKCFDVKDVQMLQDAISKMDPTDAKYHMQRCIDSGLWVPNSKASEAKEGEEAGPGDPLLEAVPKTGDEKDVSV
UniProt Q96AB3: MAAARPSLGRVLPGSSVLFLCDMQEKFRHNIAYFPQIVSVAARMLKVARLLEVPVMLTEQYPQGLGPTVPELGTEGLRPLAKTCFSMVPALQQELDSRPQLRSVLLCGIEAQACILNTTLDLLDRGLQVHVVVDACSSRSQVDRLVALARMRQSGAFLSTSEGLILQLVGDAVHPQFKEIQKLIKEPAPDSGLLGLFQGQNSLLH
UniProt P19105: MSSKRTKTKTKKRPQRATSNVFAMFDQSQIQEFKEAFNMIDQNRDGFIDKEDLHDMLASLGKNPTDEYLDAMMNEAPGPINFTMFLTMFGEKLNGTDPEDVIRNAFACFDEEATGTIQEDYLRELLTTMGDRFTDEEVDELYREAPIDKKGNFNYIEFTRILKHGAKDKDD
UniProt O14950, whole entry, looked up: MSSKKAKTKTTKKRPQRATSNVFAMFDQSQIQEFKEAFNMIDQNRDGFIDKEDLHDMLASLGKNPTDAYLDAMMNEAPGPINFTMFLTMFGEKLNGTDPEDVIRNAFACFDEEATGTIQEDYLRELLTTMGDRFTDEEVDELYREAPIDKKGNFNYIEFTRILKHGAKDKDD
UniProt O14641: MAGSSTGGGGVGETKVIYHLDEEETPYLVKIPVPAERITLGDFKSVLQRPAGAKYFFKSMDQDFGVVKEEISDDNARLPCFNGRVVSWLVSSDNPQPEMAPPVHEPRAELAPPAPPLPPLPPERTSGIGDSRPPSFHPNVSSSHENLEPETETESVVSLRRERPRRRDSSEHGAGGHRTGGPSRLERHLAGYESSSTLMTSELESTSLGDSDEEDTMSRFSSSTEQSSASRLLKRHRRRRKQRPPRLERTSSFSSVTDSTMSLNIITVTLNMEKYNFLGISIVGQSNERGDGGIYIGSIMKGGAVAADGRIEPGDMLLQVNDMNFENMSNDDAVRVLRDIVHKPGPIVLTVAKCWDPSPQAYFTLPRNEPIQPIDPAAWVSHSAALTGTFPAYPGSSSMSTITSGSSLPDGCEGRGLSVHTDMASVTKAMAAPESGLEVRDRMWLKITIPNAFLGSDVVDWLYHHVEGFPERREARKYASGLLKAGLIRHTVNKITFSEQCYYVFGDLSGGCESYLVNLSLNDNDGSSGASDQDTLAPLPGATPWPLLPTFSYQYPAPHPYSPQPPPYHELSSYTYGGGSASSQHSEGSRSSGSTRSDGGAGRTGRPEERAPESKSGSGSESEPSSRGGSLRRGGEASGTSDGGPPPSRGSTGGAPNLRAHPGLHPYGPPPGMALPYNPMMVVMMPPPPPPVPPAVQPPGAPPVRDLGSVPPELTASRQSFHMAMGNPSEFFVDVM
UniProt Q9H0R4: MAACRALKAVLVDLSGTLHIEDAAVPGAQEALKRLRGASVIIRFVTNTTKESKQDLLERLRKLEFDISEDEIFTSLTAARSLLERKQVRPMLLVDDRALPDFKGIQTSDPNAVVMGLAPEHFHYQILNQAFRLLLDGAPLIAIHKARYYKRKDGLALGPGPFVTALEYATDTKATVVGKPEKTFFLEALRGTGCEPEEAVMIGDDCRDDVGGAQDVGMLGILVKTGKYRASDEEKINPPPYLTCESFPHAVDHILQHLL
UniProt P49642: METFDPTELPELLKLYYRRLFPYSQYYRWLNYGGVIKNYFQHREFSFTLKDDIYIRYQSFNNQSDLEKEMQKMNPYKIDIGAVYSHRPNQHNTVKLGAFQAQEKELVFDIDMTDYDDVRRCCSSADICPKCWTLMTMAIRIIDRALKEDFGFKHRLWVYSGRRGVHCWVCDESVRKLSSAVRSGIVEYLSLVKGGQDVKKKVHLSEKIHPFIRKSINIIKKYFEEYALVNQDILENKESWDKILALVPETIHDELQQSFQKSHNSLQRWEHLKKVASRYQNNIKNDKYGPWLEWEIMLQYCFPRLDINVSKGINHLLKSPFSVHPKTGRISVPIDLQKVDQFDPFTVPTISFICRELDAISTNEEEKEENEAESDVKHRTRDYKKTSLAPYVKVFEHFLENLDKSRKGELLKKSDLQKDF
UniProt Q96K21: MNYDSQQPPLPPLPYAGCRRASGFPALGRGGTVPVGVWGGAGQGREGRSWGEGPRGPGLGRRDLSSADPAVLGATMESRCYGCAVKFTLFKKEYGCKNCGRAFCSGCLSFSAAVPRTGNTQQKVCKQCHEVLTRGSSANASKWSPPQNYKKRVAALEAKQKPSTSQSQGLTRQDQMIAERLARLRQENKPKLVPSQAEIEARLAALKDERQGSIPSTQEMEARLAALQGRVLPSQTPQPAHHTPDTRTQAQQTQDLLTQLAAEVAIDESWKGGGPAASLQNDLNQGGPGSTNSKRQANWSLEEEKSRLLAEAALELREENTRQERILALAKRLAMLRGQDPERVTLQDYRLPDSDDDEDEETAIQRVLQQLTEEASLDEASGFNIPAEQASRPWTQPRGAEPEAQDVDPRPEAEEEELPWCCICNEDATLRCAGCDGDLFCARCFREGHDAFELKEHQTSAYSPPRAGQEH
UniProt P80404: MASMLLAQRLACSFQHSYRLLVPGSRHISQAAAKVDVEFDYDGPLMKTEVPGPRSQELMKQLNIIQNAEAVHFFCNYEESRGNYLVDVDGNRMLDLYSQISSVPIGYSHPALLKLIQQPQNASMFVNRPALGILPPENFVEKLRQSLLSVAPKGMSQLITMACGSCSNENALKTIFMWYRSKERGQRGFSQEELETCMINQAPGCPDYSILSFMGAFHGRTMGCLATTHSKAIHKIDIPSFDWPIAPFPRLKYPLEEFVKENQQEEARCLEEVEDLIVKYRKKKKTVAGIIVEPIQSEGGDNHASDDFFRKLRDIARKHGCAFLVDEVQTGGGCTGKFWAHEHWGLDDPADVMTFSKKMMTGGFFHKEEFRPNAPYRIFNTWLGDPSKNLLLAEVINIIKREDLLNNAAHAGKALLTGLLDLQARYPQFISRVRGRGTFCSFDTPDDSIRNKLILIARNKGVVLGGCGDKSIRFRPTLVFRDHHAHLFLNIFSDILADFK
UniProt Q9Y375: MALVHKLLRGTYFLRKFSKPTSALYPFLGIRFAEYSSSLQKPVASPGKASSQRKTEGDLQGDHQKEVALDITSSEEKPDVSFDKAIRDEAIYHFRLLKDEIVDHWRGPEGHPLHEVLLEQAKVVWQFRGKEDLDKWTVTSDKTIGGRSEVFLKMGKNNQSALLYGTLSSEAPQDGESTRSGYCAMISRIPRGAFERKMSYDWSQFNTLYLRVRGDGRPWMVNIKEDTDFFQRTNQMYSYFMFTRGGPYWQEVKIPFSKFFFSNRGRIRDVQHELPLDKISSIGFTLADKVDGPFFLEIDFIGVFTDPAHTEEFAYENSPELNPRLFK
UniProt P49848, whole entry: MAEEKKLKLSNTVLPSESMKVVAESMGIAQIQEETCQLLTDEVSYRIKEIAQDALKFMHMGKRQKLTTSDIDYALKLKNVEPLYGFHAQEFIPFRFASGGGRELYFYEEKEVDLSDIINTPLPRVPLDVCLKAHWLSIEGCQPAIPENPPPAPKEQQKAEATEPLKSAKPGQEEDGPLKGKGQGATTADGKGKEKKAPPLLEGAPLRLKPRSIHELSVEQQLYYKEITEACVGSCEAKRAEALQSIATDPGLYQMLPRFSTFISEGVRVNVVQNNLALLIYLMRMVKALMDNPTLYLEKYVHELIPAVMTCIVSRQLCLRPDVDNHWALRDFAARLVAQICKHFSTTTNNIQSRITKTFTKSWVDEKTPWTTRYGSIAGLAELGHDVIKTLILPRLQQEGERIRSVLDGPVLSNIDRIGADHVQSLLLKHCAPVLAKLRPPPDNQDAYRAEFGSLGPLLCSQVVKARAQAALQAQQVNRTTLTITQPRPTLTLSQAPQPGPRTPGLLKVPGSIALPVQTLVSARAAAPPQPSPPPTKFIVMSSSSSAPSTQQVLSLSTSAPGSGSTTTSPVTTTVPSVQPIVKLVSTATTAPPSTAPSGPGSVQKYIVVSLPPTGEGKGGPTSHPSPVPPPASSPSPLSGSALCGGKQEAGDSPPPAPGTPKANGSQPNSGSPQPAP

Compound: Nc1nc2c(ncn2[C@@H]2O[C@H](COP(=O)(O)OP(=O)(O)OP(=O)(O)O)[C@@H](O)[C@H]2O)c(=O)[nH]1 [guanosine triphosphate]
Test: NP40-soluble protein abundance relative to vehicle (solubility fold change) (ratio); higher = more soluble protein in presence of GTP
Procedure, shortened: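 Jurkat crude lysate (Dounce-homogenised) was treated with eight concentrations from 0.1 to 10 mM for 10 min at room temperature, then 3 min at 37 °C. It was solubilised with 0.8% NP40 and benzonase (60 min, 4 °C) and ultracentrifuged, and the supernatant was TMT-labelled for LC-MS/MS. Intensities were vsn-normalised, and the value is the fold change against the NP40-processed vehicle per replicate, from three independent experiments.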

Target	NP40-soluble protein abundance (concentration: 0.1mM)	NP40-soluble protein abundance (concentration: 0.5mM)	NP40-soluble protein abundance (concentration: 1mM)	NP40-soluble protein abundance (concentration: 2mM)	NP40-soluble protein abundance (concentration: 4mM)	NP40-soluble protein abundance (concentration: 6mM)	NP40-soluble protein abundance (concentration: 8mM)	NP40-soluble protein abundance (concentration: 10mM)
J9JIE6 and related entries (UniProt Q9UM00)	0.961 ± 0.022	0.951 ± 0.066	0.998 ± 0.058	0.985 ± 0.077	1.03 ± 0.04	0.999 ± 0.07	1.04 ± 0.023	1.08 ± 0.061
H7BXI1 and related entries (UniProt A0FGR8)	0.984 ± 0.013	1.01 ± 0.045	0.942 ± 0.012	0.945 ± 0.037	0.934 ± 0.014	0.944 ± 0.025	0.9154 ± 0.0069	0.894 ± 0.034
J3KPC5 and related entries (UniProt P47736)	1.01 ± 0.065	1.03 ± 0.069	0.991 ± 0.1	0.949 ± 0.093	0.941 ± 0.05	0.961 ± 0.11	0.968 ± 0.085	0.923 ± 0.053
J3KNF5 and related entries (UniProt O15078)	1 ± 0.039	0.935 ± 0.07	0.918 ± 0.063	0.893 ± 0.051	0.885 ± 0.043	0.918 ± 0.063	0.892 ± 0.1	0.867 ± 0.069
H3BNA5 and related entries (UniProt Q9NZC3)	0.999 ± 0.024	0.959 ± 0.028	0.958 ± 0.035	0.961 ± 0.026	0.944 ± 0.054	0.913 ± 0.045	0.905 ± 0.067	0.897 ± 0.059
K7EL68 and related entries (UniProt Q16543)	0.91 ± 0.071	0.939 ± 0.091	0.964 ± 0.11	0.927 ± 0.14	0.901 ± 0.11	0.931 ± 0.13	0.914 ± 0.073	0.928 ± 0.1
K7EKW4 and related entries (UniProt Q96AB3)	1.01 ± 0.042	0.969 ± 0.025	0.901 ± 0.054	0.949 ± 0.056	0.915 ± 0.039	0.871 ± 0.026	0.859 ± 0.075	0.871 ± 0.083
J3QRS3 and related entries (UniProt P19105+O14950+J3QRS3)	0.903 ± 0.17	0.889 ± 0.11	1.17 ± 0.28	1.14 ± 0.14	1.11 ± 0.16	1.16 ± 0.15	1.07 ± 0.23	1.2 ± 0.26
I3L2N2 and related entries (UniProt O14641)	1.02 ± 0.028	1 ± 0.03	1.02 ± 0.042	1.02 ± 0.069	1.04 ± 0.071	1 ± 0.052	1.04 ± 0.058	1.03 ± 0.041
K7ER15 and related entries (UniProt Q9H0R4)	0.969 ± 0.1	0.99 ± 0.019	0.893 ± 0.081	0.841 ± 0.056	0.778 ± 0.13	0.827 ± 0.044	0.78 ± 0.15	0.786 ± 0.067
H0YIP2 and related entries (UniProt P49642)	0.99 ± 0.044	0.991 ± 0.014	0.9615 ± 0.0063	0.954 ± 0.032	0.954 ± 0.026	0.976 ± 0.027	0.9486 ± 0.0078	0.927 ± 0.045
H3BRF9 and related entries (UniProt Q96K21)	1.04 ± 0.036	0.991 ± 0.078	1 ± 0.1	0.93 ± 0.016	0.911 ± 0.067	0.965 ± 0.11	0.961 ± 0.1	0.986 ± 0.12
H3BNQ7 and related entries (UniProt P80404)	1.04 ± 0.034	1.063 ± 0.0064	1 ± 0.047	0.994 ± 0.024	1 ± 0.052	0.954 ± 0.029	0.918 ± 0.044	0.943 ± 0.055
H0YL22 and related entries (UniProt Q9Y375)	0.979 ± 0.059	1.05 ± 0.082	0.936 ± 0.088	0.969 ± 0.071	0.922 ± 0.036	0.924 ± 0.065	0.921 ± 0.071	0.943 ± 0.059
K7EK07 and related entries (UniProt P84243+K7EK07)	0.857 ± 0.015	0.815 ± 0.042	0.9735 ± 0.0013	0.966 ± 0.03	1.03 ± 0.022	1.08 ± 0.054	1.06 ± 0.042	1.27 ± 0.059
J3KR72 and related entries (UniProt P49848)	1.09 ± 0.011	1.05 ± 0.043	1.13 ± 0.04	1.14 ± 0.034	1.2 ± 0.084	1.19 ± 0.071	1.2 ± 0.095	1.2 ± 0.11

2 records drawn at random from those above, as already listed:
Target	NP40-soluble protein abundance (concentration: 0.1mM)	NP40-soluble protein abundance (concentration: 0.5mM)	NP40-soluble protein abundance (concentration: 1mM)	NP40-soluble protein abundance (concentration: 2mM)	NP40-soluble protein abundance (concentration: 4mM)	NP40-soluble protein abundance (concentration: 6mM)	NP40-soluble protein abundance (concentration: 8mM)	NP40-soluble protein abundance (concentration: 10mM)
K7ER15 and related entries (UniProt Q9H0R4)	0.969 ± 0.1	0.99 ± 0.019	0.893 ± 0.081	0.841 ± 0.056	0.778 ± 0.13	0.827 ± 0.044	0.78 ± 0.15	0.786 ± 0.067
H0YIP2 and related entries (UniProt P49642)	0.99 ± 0.044	0.991 ± 0.014	0.9615 ± 0.0063	0.954 ± 0.032	0.954 ± 0.026	0.976 ± 0.027	0.9486 ± 0.0078	0.927 ± 0.045
